The target in test [1] is T1, Tudor staphylococcal nuclease 2 with C-terminal TAPa tag (TSN2‐TAPa) (Arabidopsis thaliana) (UniProt Q9FLT0).
T1 sequence: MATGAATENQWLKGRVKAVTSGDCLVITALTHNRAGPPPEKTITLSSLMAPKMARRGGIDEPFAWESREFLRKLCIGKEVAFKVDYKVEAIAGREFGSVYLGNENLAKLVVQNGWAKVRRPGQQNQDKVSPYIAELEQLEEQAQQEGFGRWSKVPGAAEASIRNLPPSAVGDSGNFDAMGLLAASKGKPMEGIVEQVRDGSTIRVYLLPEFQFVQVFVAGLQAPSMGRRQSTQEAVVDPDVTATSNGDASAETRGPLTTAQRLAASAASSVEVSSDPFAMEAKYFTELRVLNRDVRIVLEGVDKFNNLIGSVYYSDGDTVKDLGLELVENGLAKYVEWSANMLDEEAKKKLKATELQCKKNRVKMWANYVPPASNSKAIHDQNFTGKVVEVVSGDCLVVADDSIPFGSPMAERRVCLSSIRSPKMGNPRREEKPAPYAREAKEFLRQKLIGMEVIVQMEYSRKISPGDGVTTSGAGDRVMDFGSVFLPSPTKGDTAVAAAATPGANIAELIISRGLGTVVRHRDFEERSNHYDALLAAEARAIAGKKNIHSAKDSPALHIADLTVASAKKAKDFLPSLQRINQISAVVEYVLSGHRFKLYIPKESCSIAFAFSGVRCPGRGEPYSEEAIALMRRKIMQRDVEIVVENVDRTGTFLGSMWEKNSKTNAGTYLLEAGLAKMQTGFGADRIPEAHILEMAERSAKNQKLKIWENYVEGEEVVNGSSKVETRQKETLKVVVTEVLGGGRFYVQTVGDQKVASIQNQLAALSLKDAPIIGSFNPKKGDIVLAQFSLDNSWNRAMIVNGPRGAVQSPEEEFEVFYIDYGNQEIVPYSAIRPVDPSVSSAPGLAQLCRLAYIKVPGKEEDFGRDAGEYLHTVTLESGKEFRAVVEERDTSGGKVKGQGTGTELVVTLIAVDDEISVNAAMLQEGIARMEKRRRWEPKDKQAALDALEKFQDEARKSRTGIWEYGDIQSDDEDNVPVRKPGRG
Description: affinity purification with mass spectrometry; TAPa with TSN2-TAPa as in a1, plants salt-stressed (200 mM NaCl for 5 h): TSN2_NaCl pool.

Test [2] addresses T1, Tudor staphylococcal nuclease 2 with C-terminal TAPa tag (TSN2‐TAPa) (Arabidopsis thaliana). Put plainly: affinity purification with mass spectrometry; TAPa: TSN2-TAPa or TSN1-TAPa as bait from leaves of 18-day-old Arabidopsis; IgG beads, 3C protease elution, Ni-NTA; 50 mM Tris-HCl pH 7.5, 150 mM NaCl, 10% glycerol, 0.1% Nonidet P-40, 4°C; label-free LC-MS/MS (iBAQ), enrichment against GFP-TAPa; plants at 23°C (NS), 39°C for 60 min (HS) or 200 mM NaCl for 5 h.

For test [3], the target named is T2, Tudor staphylococcal nuclease 1 with C-terminal TAPa tag (TSN1‐TAPa) (Arabidopsis thaliana) (UniProt Q8VZG7).
T2 sequence: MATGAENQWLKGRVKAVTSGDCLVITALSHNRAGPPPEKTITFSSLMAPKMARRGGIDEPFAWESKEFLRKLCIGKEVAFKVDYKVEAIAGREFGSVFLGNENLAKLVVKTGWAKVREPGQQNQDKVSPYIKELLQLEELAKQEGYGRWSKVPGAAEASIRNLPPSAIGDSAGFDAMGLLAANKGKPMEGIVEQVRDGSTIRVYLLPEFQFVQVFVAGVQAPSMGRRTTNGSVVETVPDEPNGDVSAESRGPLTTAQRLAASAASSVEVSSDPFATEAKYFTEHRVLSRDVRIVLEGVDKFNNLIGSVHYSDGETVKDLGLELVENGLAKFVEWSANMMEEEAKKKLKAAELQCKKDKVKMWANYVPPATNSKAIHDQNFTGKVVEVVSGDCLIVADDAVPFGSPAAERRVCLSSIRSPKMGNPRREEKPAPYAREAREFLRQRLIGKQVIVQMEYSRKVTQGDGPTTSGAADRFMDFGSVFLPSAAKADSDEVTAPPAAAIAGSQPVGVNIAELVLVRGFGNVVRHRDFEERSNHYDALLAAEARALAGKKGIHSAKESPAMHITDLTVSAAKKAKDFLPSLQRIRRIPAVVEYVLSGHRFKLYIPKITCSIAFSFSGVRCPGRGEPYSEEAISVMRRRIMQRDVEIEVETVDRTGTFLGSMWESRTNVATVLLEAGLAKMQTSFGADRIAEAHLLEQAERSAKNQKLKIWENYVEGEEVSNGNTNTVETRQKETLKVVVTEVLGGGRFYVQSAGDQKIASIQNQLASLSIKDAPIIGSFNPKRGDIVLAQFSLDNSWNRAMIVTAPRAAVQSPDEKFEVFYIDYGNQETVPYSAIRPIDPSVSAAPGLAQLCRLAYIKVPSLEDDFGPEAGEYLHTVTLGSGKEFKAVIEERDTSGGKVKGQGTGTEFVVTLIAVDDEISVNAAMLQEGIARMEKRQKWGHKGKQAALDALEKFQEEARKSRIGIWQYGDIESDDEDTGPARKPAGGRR
Described as above.

The target of test [4] is GFP‐RBP47 (Arabidopsis thaliana). Put plainly: affinity purification with mass spectrometry; GFP-RBP47 immunoprecipitated with α-GFP magnetic beads from leaves of 18-day-old Arabidopsis, NS (23°C) or HS (39°C for 60 min); 50 mM Tris-HCl pH 7.5, 150 mM NaCl, 0.1% Nonidet P-40, 4°C; on-bead digestion, label-free LC-MS/MS, free GFP plants as control.

These are yes or no findings as the source states them, for the method shown. Binding seen in cells or lysates may run through a third protein. Here binding means that the protein was enriched with, or labelled near, the bait; the list need not be complete. For part of these data: A no says only that the protein was not detected with the bait. Sequences can lack the tags named with a protein.

As to Oligouridylate Binding Protein 1 (UBP1), the binding entry in test [1] was “no binding (only salt stress (200 mM NaCl for 5 h))”; in test [2], “binds”.

B1: DEAD‐box ATP‐dependent RNA helicase 12 (RH12) (protein, UniProt Q9M2E0 1-498)
chain: MNTNRGRYPPGVGTGRGAPPNPDYHQSYRQQQPPQDQQYVQRGYSQNPQQMQLQQQHQQQQQQQQWSRRPQLPGNASNANEVVQQTTQPEASSDANGQDWKATLRLPPPDTRYQTADVTATKGNEFEDYFLKRDLLKGIYEKGFEKPSPIQEESIPIALTGSDILARAKNGTGKTGAFCIPVLEKIDPNNNVIQAMILVPTRELALQTSQVCKELSKYLNIQVMVTTGGTSLRDDIMRLHQPVHLLVGTPGRILDLTKKGVCVLKDCAMLVMDEADKLLSAEFQPSLEELIQFLPQNRQFLMFSATFPVTVKAFKDRHLRKPYVINLMDQLTLMGVTQYYAFVEERQKVHCLNTLFSKLQINQSIIFCNSVNRVELLAKKITELGYSCFYIHAKMVQDHRNRVFHEFRNGACRNLVCTDLFTRGIDIQAVNVVINFDFPRTSESYLHRVGRSGRFGHLGLAVNLVTYEDRFKMYQTEQELGTEIKPIPSNIDQAIYCQ
As for B1, the binding result in test [3] and in test [2] was “binds” throughout.

B2: PAB4 (protein, UniProt O22173 1-662)
chain: MAQVQAPSSHSPPPPAVVNDGAATASATPGIGVGGGGDGVTHGALCSLYVGDLDFNVTDSQLYDYFTEVCQVVSVRVCRDAATNTSLGYGYVNYSNTDDAEKAMQKLNYSYLNGKMIRITYSSRDSSARRSGVGNLFVKNLDKSVDNKTLHEAFSGCGTIVSCKVATDHMGQSRGYGFVQFDTEDSAKNAIEKLNGKVLNDKQIFVGPFLRKEERESAADKMKFTNVYVKNLSEATTDDELKTTFGQYGSISSAVVMRDGDGKSRCFGFVNFENPEDAARAVEALNGKKFDDKEWYVGKAQKKSERELELSRRYEQGSSDGGNKFDGLNLYVKNLDDTVTDEKLRELFAEFGTITSCKVMRDPSGTSKGSGFVAFSAASEASRVLNEMNGKMVGGKPLYVALAQRKEERRAKLQAQFSQMRPAFIPGVGPRMPIFTGGAPGLGQQIFYGQGPPPIIPHQPGFGYQPQLVPGMRPAFFGGPMMQPGQQGPRPGGRRSGDGPMRHQHQQPMPYMQPQMMPRGRGYRYPSGGRNMPDGPMPGGMVPVAYDMNVMPYSQPMSAGQLATSLANATPAQQRTLLGESLYPLVDQIESEHAAKVTGMLLEMDQTEVLHLLESPEALNAKVSEALDVLRNVNQPSSQGSEGNKSGSPSDLLASLSINDHL
Take B2: the binding entry in test [3] and in test [2] was “binds” in each case.

B3: TSN2 (endogenous, found in the GFP‐RBP47 immunoprecipitates) (protein, UniProt Q9FLT0 1-985)
chain: T1 sequence
Take B3: the binding entry in test [4] is listed as “binds”.

B4: SnRK1α2 (α‐catalytic subunit of SNF1‐related protein kinase 1) (protein, UniProt P92958 1-512)
chain: MDHSSNRFGNNGVESILPNYKLGKTLGIGSFGKVKIAEHVVTGHKVAIKILNRRKIKNMEMEEKVRREIKILRLFMHPHIIRQYEVIETTSDIYVVMEYVKSGELFDYIVEKGRLQEDEARNFFQQIISGVEYCHRNMVVHRDLKPENLLLDSRCNIKIADFGLSNVMRDGHFLKTSCGSPNYAAPEVISGKLYAGPEVDVWSCGVILYALLCGTLPFDDENIPNLFKKIKGGIYTLPSHLSSEARDLIPRMLIVDPVKRITIPEIRQHRWFQTHLPRYLAVSPPDTVEQAKKINEEIVQEVVNMGFDRNQVLESLRNRTQNDATVTYYLLLDNRFRVPSGYLESEFQETTDSGSNPMRTPEAGASPVGHWIPAHVDHYGLGARSQVPVDRKWALGLQSHAHPREIMNEVLKALQELNVCWKKIGHYNMKCRWVPGLADGQNTMVNNQLHFRDESSIIEDDCAMTSPTVIKFELQLYKAREEKYLLDIQRVNGPQFLFLDLCAAFLTELRVI
Consider B4, for which the binding entry in test [1] is on record as “no binding (only salt stress (200 mM NaCl for 5 h))”; in test [2], “binds”.

These data come from paper PMC8447601.
